Reference: paper PMC12040169 (PLOS Biology, 2025)
Some of the results follow.

Test system: T1, CTL2-GFP (C. trachomatis L2/434/Bu, GFP-expressing)
T1 construct: L2/434/Bu, GFP-expressing
Design: species or system HeLa; Intracellular C. trachomatis growth in HeLa cells, bulk GFP fluorescence relative to DMSO
Conditions: bulk GFP, single well; 28.5 h, 10 µM; inhibitor

Row | Structure (SMILES) | % of control remaining
1 | COc1ccccc1Cc1noc(COc2cccc(C)c2C)n1 [CBK265521] | 118.344%
2 | Cc1ccc(S(=O)(=O)N(CC(=O)Nc2ccc(Cl)cc2C)c2cccc(Cl)c2C)cc1 [CBK264021] | 108.352%
3 | O=C(O)COc1cccc(NS(=O)(=O)c2ccc(Br)cc2)c1 [CBK286911] | 107.3%
4 | CC(C)CC(C(=O)O)N1C(=O)/C(=C2/C(=O)Nc3ccc(Br)cc32)SC1=S (stereo not drawn) [CBK261610] | 113.398%
5 | COc1cccc(Oc2nccnc2/C=C/c2ccccc2)c1 [CBK106877] | 83.3577%
6 | Cc1cc(Br)ccc1S(=O)(=O)N(C)c1ccc(N2CCNCC2)c2ccccc12 [CBK016170C] | 29.736%
7 | CC(C)C1c2cccn2CCN1C(=O)c1cc(-c2ccccn2)n[nH]1 (stereo not drawn) [CBK283223] | 129.569%
8 | COc1ccc(C)cc1C(O)CN1CCOC(c2ccc(F)cc2)C1 (stereo not drawn) [CBK298264] | 121.57%
9 | Cc1cccc(-c2nccnc2C2CCCN(C(=O)COc3ccc(F)cc3)C2)c1 (stereo not drawn) [CBK286241] | 107.677%
10 | CCOC(=O)c1sc(NC(=O)Nc2cccc(Cl)c2)c(C(N)=O)c1C [CBK262658] | 114.415%
11 | Fc1ccc(CCNC(=S)NC2CCCC2)cc1 [CBK266175] | 119.675%
12 | O=S(=O)(Nc1nccnc1-c1cccs1)C1CC1 [CBK050764] | 163.587%
13 | O=C1CC(Sc2ccccc2)C(=O)N1c1ccc(Cc2ccc(N3C(=O)CC(Sc4ccccc4)C3=O)cc2)cc1 (stereo not drawn) [CBK263797] | 90.9398%
14 | CCN(Cc1c[nH]nc1-c1ccc(OC)cc1F)CC1CCCO1 (stereo not drawn) [CBK307350] | 118.596%
15 | CCOC(=O)c1sc2nc(C)ccc2c1N [CBK115377] | 90.9121%
16 | Cc1cc([N+](=O)[O-])cc[n+]1[O-] [CBK261014] | 86.3096%
17 | CC(C)(C)OC(=O)N1CCC[C@H]1C(=O)c1cccnc1 [CBK284280] | 61.5192%
18 | COc1ccc(C(c2ccccc2C)N(C)C(=O)C2CCNCC2)cn1 (stereo not drawn) [CBK074124] | 116.691%
19 | Brc1ccc(Nc2ncnc3[nH]cnc23)cc1 [CBK287386] | 172.337%
20 | O=C(O)COc1ccc(Br)cc1C(c1c[nH]c2ccccc12)c1c[nH]c2ccccc12 [CBK265720] | 159.992%
21 | N#Cc1ccc(CN2CCOC3(CCN(C(=O)OCc4ccccc4)CC3)C2)cc1 [CBK161103T] | 67.8028%
22 | O=C(CSc1ncnc2ccccc12)NCc1ccco1 [CBK287509] | 122.226%
23 | CCCc1ccc(S(=O)(=O)n2ccn(-c3ccc(Oc4ccccc4)cc3)c2=O)cc1 [CBK106648] | 105.656%
24 | Cc1ccccc1OCc1nnc(SCC(=O)N2CCOCC2)n1C [CBK265850] | 115.043%
25 | COc1ccc(C(=O)Nc2nc3ccc(NC(C)=O)cc3s2)cc1OC [CBK287311] | 143.284%
26 | COc1ccc(S(=O)(=O)N2CCC(C(=O)N3CCN(Cc4ccc5c(c4)OCO5)CC3)CC2)cc1Cl [CBK267614] | 137.813%

Row | Structure (SMILES) | % of control remaining
27 | CCC(C)(NC=O)C(=O)Nc1ccccc1C(=O)O (stereo not drawn) [CBK287177] | 106.37%
28 | O=C(CSc1ccc2nnc(-c3ccccc3)n2n1)Nc1nccs1 [CBK287516] | 144.545%
29 | CCCS(=O)(=O)n1ccn(-c2cccc(C(F)(F)F)c2)c1=O [CBK106585] | 117.272%
30 | Cc1cc(=O)n2c3c(cc(S(=O)(=O)NCC4CCCO4)cc13)CC2 (stereo not drawn) [CBK307595] | 107.796%
31 | CC(C)NC(=O)[C@H]1O[C@H](CCN2CCN(c3ccccc3)CC2)CC[C@@H]1O [CBK288719] | 97.5267%
32 | COc1ccc(Br)cc1/C=N/NC(=O)CC1C(=O)NN=C1C (stereo not drawn) [CBK263359] | 104.894%
33 | O=C(CSc1nnc(Cc2cccc3ccccc23)n1-c1ccccc1)NC1CC1 [CBK267382] | 148.261%
34 | COCCOC(=O)C1=C(C)NC2=C(C(=O)CC(c3ccc(OC)cc3)C2)C1c1ccc(F)cc1 (stereo not drawn) [CBK293921] | 134.071%
35 | Cc1cc(C)n2nc(CCCOC(=O)c3ccn(C(C)C)n3)nc2n1 [CBK305272] | 107.109%
36 | CN(C)C(=O)CN1CCN(CCc2ccccc2)CC1 [CBK126455] | 97.1323%
37 | O=C(c1cn2ccccc2n1)N1CCC(c2ccccc2)C1 (stereo not drawn) [CBK281850] | 109.483%
38 | COC(=O)CCc1ccc(S(=O)(=O)N2CCCN(Cc3cccc(C(F)(F)F)c3)CC2)cc1 [CBK062983] | 111.861%
39 | Oc1cccc(Sc2cncc(N3CCCC3)n2)c1 [CBK093796] | 114.119%
40 | O=S(=O)(Nc1cccc(O)c1)c1ccc(OC(F)(F)F)cc1 [CBK043822] | 121.847%
41 | CCN(Cc1cccs1)C(=O)NC1CCCc2c1cnn2CCO (stereo not drawn) [CBK305768] | 115.855%
42 | CN1CCN(C(=O)CNS(=O)(=O)c2ccc(Br)cc2)CC1 [CBK034478] | 93.8637%
43 | Cc1ccc2c(C)c(-c3cncn3C(C)CN3CCOCC3)oc2c1 (stereo not drawn) [CBK281796] | 113.247%
44 | CC(C)(O)C#Cc1ccc(C(=O)N2CCN(C/C=C/c3ccccc3)CC2)s1 [CBK267007] | 135.655%
45 | Cc1nn(CCn2cncc2-c2cnn(C)c2)c(C)c1C [CBK281783] | 151.395%
46 | CN(C)C(=O)c1ccc(-c2ncc(OCCN3CCCC3=O)nc2N)cc1 [CBK145184] | 100%
47 | O=[N+]([O-])c1cc(C(F)(F)F)ccc1N(CCO)CCO [CBK262238] | 99.5546%
48 | CCCN1CC(NS(=O)(=O)c2ccnn2CCC)CC1=O (stereo not drawn) [CBK306598] | 137.922%
49 | Cc1cn2c(=O)c(C(=O)Nc3ccccc3C)cnc2s1 [CBK287710] | 101.439%
50 | O=C(O)c1cc(-c2ccc(/C=C3\SC(=S)N(Cc4cccnc4)C3=O)o2)ccc1Cl [CBK264712] | 117.596%
51 | O=C(CCc1ccc(O)c(O)c1)NNC(=S)Nc1ccc(F)cc1F [CBK267041] | 81.6213%
52 | O=C(Nc1cccc(-c2nnc3n2CCCCC3)c1)[C@@H]1CCCN1C(=O)c1cccs1 [CBK297090] | 125.375%

Ordered by number of heavy atoms (descending): some entries from above
Row | Structure (SMILES) | % of control remaining
41 | CCN(Cc1cccs1)C(=O)NC1CCCc2c1cnn2CCO (stereo not drawn) [CBK305768] | 115.855%
48 | CCCN1CC(NS(=O)(=O)c2ccnn2CCC)CC1=O (stereo not drawn) [CBK306598] | 137.922%
47 | O=[N+]([O-])c1cc(C(F)(F)F)ccc1N(CCO)CCO [CBK262238] | 99.5546%

Reformatted: entries from further up.
Row	Structure (SMILES)	% of control remaining
36	CN(C)C(=O)CN1CCN(CCc2ccccc2)CC1 [CBK126455]	97.1323%
46	CN(C)C(=O)c1ccc(-c2ncc(OCCN3CCCC3=O)nc2N)cc1 [CBK145184]	100%

Additional results

Row | Structure (SMILES) | % of control remaining
53 | CC1(C)CCCN(C(=O)CCn2ccc3ccncc32)C1 [CBK285173] | 123.565%
54 | O=C(CC1Nc2ccccc2NC1=O)Nc1cccc(C(F)(F)F)c1 (stereo not drawn) [CBK262510] | 100%
55 | Cc1noc(/C=C\c2cc(C)n(-c3ccc(C(=O)O)cc3)c2C)c1[N+](=O)[O-] [CBK268862] | 157.143%
56 | O=C(NCCN1CCOCC1)c1ccc(NS(=O)(=O)c2ccccc2)cc1 [CBK270118] | 113.174%
57 | O=C(c1ccccc1F)N1CCN(C(=O)[C@@H]2C[C@@H]3C=C[C@H]2C3)CC1 [CBK282011] | 126.682%
58 | CCN1CCN(C(=O)c2c[nH]c3ccccc23)CC1 [CBK200245] | 119.086%
59 | Cc1ccc(OCC(O)CNC(=O)c2ccccc2C(=O)O)cc1 (stereo not drawn) [CBK264778] | 117.33%
60 | O=C(O)C1C2CCC(C2)C1C(=O)NCCCCc1ccccc1 (stereo not drawn) [CBK286967] | 139.261%
61 | CN(C)/C=N/c1nc2c(nc(Br)n2C2CC(O)C(CO)O2)c(=O)[nH]1 (stereo not drawn) [CBK201319] | 102.041%
62 | CC(=O)N1CCc2cc(NC(=O)Cn3ccnc3C(C)C)ccc21 [CBK281471] | 118.497%
63 | CCn1c(C)nc2cc(NC(=O)Cn3cc(C(=O)NC4CCCCC4)ccc3=O)ccc21 [CBK286095] | 126.331%
64 | CC(=O)Nc1nnc(SCC(=O)NCc2ccc3c(c2)OCO3)s1 [CBK287626] | 159.755%
65 | Cc1c(NC(=O)COc2ccc([N+](=O)[O-])cc2)cccc1-c1nc2ncccc2o1 [CBK263912] | 111.969%
66 | O=C(c1c[nH]c(=O)n(-c2ccc(F)cc2)c1=O)N1CCc2ccccc21 [CBK287554] | 132.729%
67 | CCC1CC(C(F)(F)F)n2ncc(C(=O)O)c2N1 (stereo not drawn) [CBK286893] | 111.15%
68 | CCONC(=O)c1cc(-c2ccccc2C)nc2c1cnn2C(C)C [CBK304048] | 115.541%
69 | O=C(N/N=C/c1ccc(OC(=O)c2ccc([N+](=O)[O-])cc2)cc1)c1cccnc1 [CBK262146] | 100%
70 | O=C(CN1CCC(Oc2nccnc2OCc2ccc(Cl)c(Cl)c2)CC1)Nc1ccccc1 [CBK153783] | 79.9832%
71 | O=C(NO)c1nccnc1-c1ccc(COc2ccccc2)cc1 [CBK050841] | 139.609%
72 | Cc1ccc(N2C(=O)CC(Sc3ncccc3C(=O)O)C2=O)c(C)c1 (stereo not drawn) [CBK269377] | 113.74%
73 | COc1ccc(S(=O)(=O)N2CCC(C(=O)NC3(C(=O)O)CCCCC3)CC2)cc1OC [CBK295646] | 152.019%
74 | CCC(=O)N1CCCc2cc(C(O)CN3CCN(c4cccc(OC)c4)CC3)ccc21 (stereo not drawn) [CBK286476] | 107.766%
75 | CCOc1ccnc(N2CCN(C(=O)CCc3ccsc3)CC2)n1 [CBK304942] | 108.227%
76 | CC(C)C(=O)N1CC2(CCN(Cc3ncc[nH]3)CC2)c2ccccc21 [CBK126731] | 104.755%
77 | CC(=O)Nc1ccc(S(=O)(=O)NC2(C(F)(F)F)NC(=O)N(c3ccc(Cl)cc3)C2=O)cc1 (stereo not drawn) [CBK267689] | 147.381%
78 | COc1ccc(CCNC(=O)CSC(C)C(=O)O)cc1 (stereo not drawn) [CBK297493] | 162.907%
